Measured values as given in patent publication US8846868B2, “Anti-AREG/HB-EGF antibodies and treatment” (Fusion Antibodies Limited, priority 2008, dated 2014).
No constants are given. Whether binding was seen depends on the method and setting. Some binding calls cover weakened binding; strength is not graded here.

T1: recombinant AREG (human) (UniProt P15514)
T1 sequence: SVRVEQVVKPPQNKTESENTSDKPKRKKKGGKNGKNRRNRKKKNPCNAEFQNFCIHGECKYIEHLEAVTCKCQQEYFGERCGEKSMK


Target: T1, recombinant AREG (human)
Assay: ELISA, antibody on coated recombinant protein (HBEGF, AREGfg5, rAREG), FIG. 10

binding	Binder
binds	8d7 1f6 2b3 antibody (antibody, V domains shown) VH: EVQLQQSGAELVRPGALVKLSCKASGFNIKDSYIHWVNQRPEQGLEWIGWIDPENGNTIYDPKFQGKASITADTSSNTAYLQLSSLTSEDTAVYYCVSASYRYGFSYWGQGTLVTVSA VL: DIVMTQAAPSVPVTPGESVSISCRSNKSLLHTNGNTYLYWFLQRPGQSPQLLIYRMSNLASGVPDRFSGSGSGTAFTLRISRVEAEDVGVYYCMQHLEYPYTFGGGTKLEIKR
binds	8d7 1f6 2f7 antibody (antibody, V domains shown) VH: EVQLQQSGAELVRPGALVKLSCKASGFNIKDSYIHWVNQRPEQGLEWIGWIDPENGNTIYDPKFQGKASITADTSSNTAYLQLSSLTSEDTAVYYCVSASYRYGFSYWGQGTLVTVSA VL: DIVMTQAAPSVPVTPGESVSISCRSNKSLLHTNGNTYLYWFLQRPGQSPQLLIYRMSNLASGVPDRFSGSGSGTAFTLRISRVEAEDVGVYYCMQHLEYPYTFGGGTKLEIKR
